± gives the standard deviation of the averaged measurements. Whole data set: some 1,600 compounds, median “normalized intracellular growth (luminescence, IQM-normalized) in RAW264.7 macrophages” near 1, cut for the lowest 2% near 0.43. The list shows a part of the results.

The test system of the test is Salmonella enterica serovar Typhimurium SL1344. As to the kind of experiment: normalized intracellular growth (luminescence, IQM-normalized) in RAW264.7 macrophages (fraction of plate interquartile mean); higher = more bacterial growth (less inhibition). To be noted: 10 µM.

For `CC(C)(C)NCC(O)COc1cccc2c1CCC(=O)N2` (centres undefined), the normalized intracellular growth (time point: T3 (3 h)) was 0.996 ± 0.032 and the normalized intracellular growth (time point: Tfinal (~6 h)) was found to be 1.16 ± 0.1.
In turn, `OC[C@H]1O[C@H](O[C@]2(CCl)O[C@H](CCl)[C@@H](O)[C@@H]2O)[C@H](O)[C@@H](O)[C@H]1Cl` gave a normalized intracellular growth (time point: T3 (3 h)) of 0.91 ± 0.095 and a normalized intracellular growth (time point: Tfinal (~6 h)) of 0.0259 ± 0.0051.
With `CN1CCC(=C2c3ccccc3CCc3cccnc32)CC1`, the normalized intracellular growth by setting is: (time point: T3 (3 h)) 1.03 ± 0.042; (time point: Tfinal (~6 h)) 1.18 ± 0.2.
In the case of `Nc1nc2ccc(OC(F)(F)F)cc2s1`, the normalized intracellular growth worked out at 0.966 ± 0.051 (time point: T3 (3 h)) and 0.937 ± 0.019 (time point: Tfinal (~6 h)).
On the same counts, the results for `CC(=O)c1ccc2c(c1)N(CCCN(C)C)c1ccccc1S2` are 1.04 ± 0.051 and 1.22 ± 0.087.
Consider `C=CCNC(N)=S`, for which the normalized intracellular growth (time point: T3 (3 h)) was 1 ± 0.029 and the normalized intracellular growth (time point: Tfinal (~6 h)) amounted to 1.08 ± 0.032.
In the case of `CN(C)CCOC(C)(c1ccccc1)c1ccccn1` (centres undefined), the normalized intracellular growth was 1.02 ± 0.042 (time point: T3 (3 h)) and 1.05 ± 0.027 (time point: Tfinal (~6 h)).
As to `CC(C)(C#N)c1cc(Cn2cncn2)cc(C(C)(C)C#N)c1`, the normalized intracellular growth runs as follows: (time point: T3 (3 h)) 1.07 ± 0.041; (time point: Tfinal (~6 h)) 1.32 ± 0.13.
Take `Oc1c(I)cc(Cl)c2cccnc12`: the normalized intracellular growth (time point: T3 (3 h)) came to 1.025 ± 0.0075 and the normalized intracellular growth (time point: Tfinal (~6 h)) worked out at 1.03 ± 0.068.
As to `Nc1ccn([C@H]2CC[C@@H](CO)O2)c(=O)n1`, the normalized intracellular growth stood at 0.998 ± 0.045 (time point: T3 (3 h)) and 1.32 ± 0.036 (time point: Tfinal (~6 h)).
In the case of `COc1cc(/C=C/C(N)=O)cc(OC)c1OC`, the normalized intracellular growth is, setting by setting: (time point: T3 (3 h)) 1.04 ± 0.084; (time point: Tfinal (~6 h)) 1.03 ± 0.12.
The matching figures for `CN(C(=O)C(Cl)Cl)c1ccc(OC(=O)c2ccco2)cc1`: 1 ± 0.089 and 0.807 ± 0.32.
For the compound `CC(S)C(=O)NCC(=O)O` (centres undefined), the normalized intracellular growth (time point: T3 (3 h)) stood at 1.02 ± 0.066 and the normalized intracellular growth (time point: Tfinal (~6 h)) is 0.858 ± 0.12.
On the same counts, the results for `COc1ccc(OC)c(C(O)CNC(=O)CN)c1` (centres undefined) are 0.973 ± 0.055 and 1.02 ± 0.11.
As to `CN1CCN(CCCN2c3ccccc3Sc3ccc(C(F)(F)F)cc32)CC1`, the normalized intracellular growth is 0.802 ± 0.025 (time point: T3 (3 h)) and 0.991 ± 0.066 (time point: Tfinal (~6 h)).
`CNC[C@H](O)c1ccc(O)c(O)c1` registered a normalized intracellular growth (time point: T3 (3 h)) of 1.09 ± 0.078 and a normalized intracellular growth (time point: Tfinal (~6 h)) of 1.3 ± 0.11.
In the case of `OC(CNCC(O)C1CCc2cc(F)ccc2O1)C1CCc2cc(F)ccc2O1` (centres undefined), the normalized intracellular growth amounted to 0.979 ± 0.034 (time point: T3 (3 h)) and 1.14 ± 0.13 (time point: Tfinal (~6 h)).
Take `CC[C@H](C)[C@H](N)C1=N[C@H](C(=O)N[C@@H](CC(C)C)C(=O)N[C@H](CCC(=O)O)C(=O)N[C@H](C(=O)N[C@H]2CCCCNC(=O)[C@H](CC(N)=O)NC(=O)[C@@H](CC(=O)O)NC(=O)[C@H](Cc3cnc[nH]3)NC(=O)[C@@H](Cc3ccccc3)NC(=O)[C@H]([C@@H](C)CC)NC(=O)[C@@H](CCCN)NC2=O)[C@@H](C)CC)CS1`: the normalized intracellular growth was determined as 1.05 ± 0.012 (time point: T3 (3 h)) and 0.962 ± 0.077 (time point: Tfinal (~6 h)).
Take `CC(=O)NS(=O)(=O)c1ccc(NC(=O)c2ccccc2C(=O)O)cc1`: the normalized intracellular growth (time point: T3 (3 h)) amounted to 0.935 ± 0.049 and the normalized intracellular growth (time point: Tfinal (~6 h)) came to 0.615 ± 0.14.
With `Cc1c(N(C)C)c(=O)n(-c2ccccc2)n1C`, the normalized intracellular growth reads like this: (time point: T3 (3 h)) 0.974 ± 0.09; (time point: Tfinal (~6 h)) 1.12 ± 0.09.
For `Oc1c(Cl)cc(Cl)c(Cl)c1Cc1c(O)c(Cl)cc(Cl)c1Cl`, the normalized intracellular growth by setting is: (time point: T3 (3 h)) 1.05 ± 0.025; (time point: Tfinal (~6 h)) 0.983 ± 0.022.
For the compound `COc1ccc(/C=C/C(=O)Nc2ccccc2C(=O)O)cc1OC`, the normalized intracellular growth came to 1.26 ± 0.13 (time point: T3 (3 h)) and 1.15 ± 0.14 (time point: Tfinal (~6 h)).
In the case of `CCOC(=O)C1=C(COCCN)NC(C)=C(C(=O)OC)C1c1ccccc1Cl` (centres undefined), the normalized intracellular growth by setting is: (time point: T3 (3 h)) 0.736 ± 0.18; (time point: Tfinal (~6 h)) 0.788 ± 0.062.
On the same counts, the results for `CN1[C@@H]2CC[C@H]1C[C@@H](OC(=O)c1c[nH]c3ccccc13)C2` are 1.07 ± 0.015 and 1.08 ± 0.097.
On the same counts, the results for `Cc1cccc(C)c1OCC(C)N` (centres undefined) are 1.064 ± 0.0024 and 1.06 ± 0.14.
Consider `COc1ccccc1OCC(O)CO` (centres undefined), for which the normalized intracellular growth turned out to be 0.949 ± 0.044 (time point: T3 (3 h)) and 1.09 ± 0.048 (time point: Tfinal (~6 h)).
Turning to `NC[C@@H]1O[C@H](O[C@H]2[C@@H](O)[C@H](O[C@@H]3[C@@H](O)[C@H](N)C[C@H](N)[C@H]3O[C@H]3O[C@H](CO)[C@@H](O)[C@H](O)[C@H]3N)O[C@@H]2CO)[C@H](N)[C@@H](O)[C@@H]1O`, the normalized intracellular growth came to 0.942 ± 0.059 (time point: T3 (3 h)) and 0.955 ± 0.04 (time point: Tfinal (~6 h)).

These data come from the supplement of paper PMC6331611.
